From PubChem BioAssay AID1347423 (Functional Genomics Laboratory (NCATS/FGL), 2020)
In all, about 52,000 sequences went through this assay and about 210 (0.4%) were called active.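 The calls were made as follows: active = gene whose silencing raises cell survival under the drug, median off-target-corrected z-score across its silencing RNAs 2 or more; inactive = the rest.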 The list shows a part of the results.

Test: Resistance to Poly (ADP-Ribose) Polymerase inhibitor: Gene Identification via Genome-wide siRNA Screen
Settings: mouse BRCA2 R2336H ES cells, olaparib, CellTiter-Glo viability; stronger effect = higher value
Procedure, shortened: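 Mouse BRCA2 R2336H ES cells were reverse-transfected with siRNA (20 nM final), treated at 48 h with 500 nM olaparib, and read by CellTiter-Glo after 72 h. Scores: MAD-based z per siRNA, median per gene, seed off-target correction.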
In the case of “GGGCUCUAACAUCUUAUACTT against D330013L20Rik”, the z-score is reported as inactive: 1.11. In the case of GGAUGCAUGGCACAGCUUUTT against Olfr905, the z-score is reported as inactive: -0.0193. With GGACAAAAUCACCUCACUUTT against Olfr1135 the z-score was inactive: -2.32. With GGUGGUUUAUGAAAUACCATT against Mbldc1 the z-score was inactive: 0.583. For GCGAAUUUGAGUUGAGGCUTT against Bmp2, the z-score was inactive: -1.32. For GCCUCAGUACAAGGUAGCUTT against Slc30a3, the z-score was inactive: -1.02. In the case of GCGGAUUAUUUACAACACUTT against Catnal1, the z-score is reported as inactive: 1.35. For GGCGGUUCCCUCAGAAAAUTT against Pias1, the z-score was inactive: -0.73. For “GCCACUUUUACCCUCAAGCTT against 4930422G04Rik”, the z-score was inactive: 0.204. In the case of “GGGAUUGUGUGAAUCAUACTT against 5730494N06Rik”, the z-score is reported as inactive: -0.697. With GGUGUCCUUAAGUUUGCCCTT against Grcc10 the z-score was inactive: 0.727. In the case of CCUUUCGUCAUGGUAUUAGTT against Taf3, the z-score is reported as inactive: 0.257. In the case of GGGAUGGAUCAUAGGAUUCTT against Taldo1, the z-score is reported as inactive: 1.59. For GGAGCUGUUCUCAUCCGUUTT against BC031748, the z-score was inactive: -0.689. With “GGGAGAUGCAACCUCUCUUTT against D030011O10Rik” the z-score was inactive: -0.04. In the case of “GGAGAAGGUGCUCAAGUUGTT against 4921515J06Rik”, the z-score is reported as inactive: -1.3. With “GGAGCUCGCCAAAAGGAAGTT against 1500031L02Rik” the z-score was inactive: -0.654. With GCAGAGGGUUUUCCAAGCGTT against Ddx4 the z-score was inactive: -0.994. For GCUGAUGAUCUACAUCUCCTT against Srd5a2l, the z-score was inactive: 1.51. In the case of GCGUUUGUGAAGCAUAUCATT against Myl3, the z-score is reported as inactive: -1.74. For GGCUAACCGUGGCUUCAUCTT against Lamc1, the z-score was inactive: -2.26. For GGUCUACAGACUGGAUUCUTT against V1rf4, the z-score was inactive: 0.527. In the case of GGUAUUCAUUCUUUCAGUCTT against Hoxa1, the z-score is reported as inactive: -0.529. In the case of CCCUCUUGACACGUUCAAGTT against Serpina3n, the z-score is reported as inactive: 0.194. With “CCGUUCUCAGCAGUUACUGTT against 0610038K03Rik” the z-score was inactive: -1.12. In the case of GGCUGUUAAUGCAAAAAAATT against Ern2, the z-score is reported as inactive: 0.523. With GGUUCUUCCAAAUGAUCCATT against Ccnh the z-score was inactive: -0.631. In the case of GGGAUGAAGUUUGAGGACGTT against Mrps11, the z-score is reported as inactive: -2.07. In the case of GCUGACCAUUUUGAUGCCCTT against AL024210, the z-score is reported as inactive: -1.57. With GCAAGGAAGGAUAUUACACTT against Mmp24 the z-score was inactive: -0.584. For GGCUAAAACUGCACAUAAATT against BC027061, the z-score was inactive: -0.0896. With GUGAUGCGCAUUUCGAGUCTT against Sf3b5 the z-score was inactive: 1.17. In the case of CCAGUAUGUCUGUAAGUGATT against Wnt5b, the z-score is reported as inactive: 0.727. With GCUGGGUGAAUAAUGUUAATT against Sytl2 the z-score was inactive: 0.522. For “GGACUGGUACAAGACAAUGTT against 9430041O17Rik”, the z-score was inactive: 0.722. With GGUGAAAAAAGGAAGCAAATT against Senp6 the z-score was inactive: -1.05. For GGAGAUCUCCUCAGCCACATT against Gemin4, the z-score was inactive: 0.455. For GGCAGAAGGCAAAGAAAGGTT against Cyp3a11, the z-score was inactive: -0.643. For GGAAGGAAGUCUCAACUCGTT against Lhx5, the z-score was inactive: 1.3. For ACGGUACUCAGUGCAAGCATT against Scarf1, the z-score was inactive: 0.0589. With GGAAAAUAGGGCGACAAAUTT against Tdrd7 the z-score was inactive: 0.537. With GGAACCUUUCAGAAAUAUATT against BB146404 the z-score was inactive: -0.713. In the case of GGUGACAAGCGGAUCUUUCTT against Kcne1, the z-score is reported as inactive: -0.578. In the case of “GGUCUUCAAUUUCUUCAAATT against 4930430F08Rik”, the z-score is reported as inactive: 0.0902. With CAUACCUCCACUACUCAAGTT against Olfr1113 the z-score was inactive: -0.43. For GGUGCUCAUGCAGGUCCAUTT against Slc25a25, the z-score was inactive: -1. In the case of GGGAGUUUGGCAACUACCUTT against Fkbp6, the z-score is reported as inactive: 0.502. With GGGUAACUGGAUAGGAGAATT against Pi15 the z-score was inactive: -0.669. For GCCUAAUGUCAACAUGAAGTT against Elp4, the z-score was inactive: 1.97. In the case of GGAAUUCUUCUACUUUCAATT against Tpd52l1, the z-score is reported as inactive: -0.12. With GGGAAUUGCUCAAAGUAAATT against Nqo1 the z-score was inactive: 0.3. With “GGUCUGGAGCCAGAACUCUTT against 4632406N01Rik” the z-score was inactive: -1.09. For GGAAAGGAGUCUGCCAGCUTT against Tef, the z-score was inactive: -1.72. With GGACCUGGAGAAAUUGAAGTT against Nalp6 the z-score was inactive: 1.1. With GGAGUACAUAGCUAAUGUGTT against Lemd2 the z-score was inactive: -0.932. In the case of GCAUGCCUCUCUCAAGUCUTT against Olfr849, the z-score is reported as inactive: -0.179. With GGAAGCCUAUGAACUUAAUTT against Zfp180 the z-score was inactive: 0.534. In the case of “CCAAGUGCUAAACAAGACATT against 4930458L03Rik”, the z-score is reported as inactive: -0.00649. In the case of GUAGUAAUAUCAUGGGCCUTT against Olfr339, the z-score is reported as inactive: -0.595. In the case of GAUUAGCAUCCAUGAACACTT against Tcl1b2, the z-score is reported as inactive: 0.639. With GGAAGAGGCUGAGAAGCUATT against Pabpn1 the z-score was inactive: -1.37. With GGAGUUCCAGCAGCUCUAUTT against Vsnl1 the z-score was inactive: -0.608. In the case of GUGCCACGACGGUUUUUUCTT against Avp, the z-score is reported as inactive: 0.415. In the case of “GCCUUUUAUAUAGAAGACCTT against C920005C14Rik”, the z-score is reported as inactive: 0.63. In the case of GGAGGAAAAAAGGAUCCUGTT against Map3k2, the z-score is reported as inactive: -0.439. For “CCUACGACAACUCAGACCUTT against 1110006O17Rik”, the z-score was inactive: 0.557. With GCAUGGUAUUAGAUGAUGATT against Nexn the z-score was inactive: -1.8. In the case of GAGUGUGCAUUUUGUUAGUTT against Olfr136, the z-score is reported as inactive: 0.517. For GCCUUUGUGAGGAUUAAACTT against MGC27770, the z-score was inactive: -0.295. With GCAGGUGACGUGAGGUUAATT against Zfp276 the z-score was inactive: -2.76. For “CCUCUCUGAAUUGGUUAAUTT against 2900024C23Rik”, the z-score was inactive: -1.91. In the case of “GGAUUUUUCUAGCAAGUUGTT against 1200009B18Rik”, the z-score is reported as inactive: 0.639. For “GGCAAAUGGAUCUUUAUAATT against 5630401D24Rik”, the z-score was inactive: -0.155. For GGCCCAAGAGAUUGAUCAATT against Ivd, the z-score was inactive: -0.831. With GGAGGAGAGCAUUCCCAUUTT against Ddx6 the z-score was inactive: -0.363. With GUUACCUCUGUGUUGUACUTT against Olfr60 the z-score was inactive: -0.495. For CCUGUUAUGACCGUUCAUGTT against Prpf4, the z-score was inactive: 0.582. With GCAAGUAAGACGGAACCCUTT against Ddx28 the z-score was inactive: 0.796. For GGUUUUUGGGAAUUGGCUUTT against Sfxn5, the z-score was inactive: 0.418. In the case of GGAUCCUCAGAUGAGUAUGTT against Ror1, the z-score is reported as inactive: -1.68. With GGACAAAGAAGGCAAGCAUTT against Mecp2 the z-score was inactive: 0.573. In the case of GGUACACCUUGUUGGAAUUTT against Eif5a2, the z-score is reported as inactive: -1.17. With GGAGAAGGAUUAUACCAGUTT against AI256775 the z-score was inactive: -0.139. With GGUAUUUCUUUGUGGUGCUTT against Ptch2 the z-score was inactive: 0.908. For “GCCAAGUCAACCAUAGAAUTT against A930037J23Rik”, the z-score was inactive: -1.14. For CCAGCUGGCAAGGUUAUGATT against Akap8, the z-score was inactive: 0.81. For GGAGUCAGUCCAGAUUCUGTT against Tgif, the z-score was inactive: -1.34. In the case of GGAGAAAUCAAGCAAAGAUTT against Soat1, the z-score is reported as inactive: 0.362. In the case of GCCACUAGUAUUAUGCUUCTT against Fhit, the z-score is reported as inactive: 0.926. In the case of GGCUACACCUUACUAGUGGTT against LOC73072, the z-score is reported as inactive: -0.822. In the case of GGAGAGAAAAACUUCUGGUTT against Nfx1, the z-score is reported as inactive: -0.187. In the case of GGCUACAUGAGCUGGAGAATT against Insr, the z-score is reported as inactive: -0.509. For GCUCUUUCUAUAAAAGGCCTT against Map3k9, the z-score was inactive: 1.27. With GGCGGAAGCCAUGAAGAAATT against Kcnmb4 the z-score was inactive: -1.95. With “CCUAAACCCUCAGUUCUCUTT against 4933406A14Rik” the z-score was inactive: -0.066. With GGAUGGUUACAUCAACUGCTT against Cabp1 the z-score was inactive: 0.303. With GGCUGCACAAAGAUGUUCATT against Yy1 the z-score was inactive: -0.236. With GCACGCAGAAUUCUUCCGUTT against Gyltl1b the z-score was inactive: -0.445. With “GCGAACAUUUUUCAGGGUATT against 4921525L17Rik” the z-score was inactive: -0.784. For GCUCACCGGGAUCAUUCAATT against Prnpip1, the z-score was inactive: 0.899. In the case of “CCUACUCCACGGGUAUUUUTT against 1700065D16Rik”, the z-score is reported as inactive: 0.154. For GGCUGACUGGACAAUAAAGTT against Krt2-18, the z-score was inactive: -0.0858. With GGUAAAAUACUACCUGAGATT against Abca15 the z-score was inactive: -0.386. For GGAGUUCACAUUCUUUCUGTT against Cbx7, the z-score was inactive: -0.345.
